The source of these data is US20090062179A1.

Amino acid sequences for entries named in this document (tags omitted). Residues count along the entry.
UniProt P03372: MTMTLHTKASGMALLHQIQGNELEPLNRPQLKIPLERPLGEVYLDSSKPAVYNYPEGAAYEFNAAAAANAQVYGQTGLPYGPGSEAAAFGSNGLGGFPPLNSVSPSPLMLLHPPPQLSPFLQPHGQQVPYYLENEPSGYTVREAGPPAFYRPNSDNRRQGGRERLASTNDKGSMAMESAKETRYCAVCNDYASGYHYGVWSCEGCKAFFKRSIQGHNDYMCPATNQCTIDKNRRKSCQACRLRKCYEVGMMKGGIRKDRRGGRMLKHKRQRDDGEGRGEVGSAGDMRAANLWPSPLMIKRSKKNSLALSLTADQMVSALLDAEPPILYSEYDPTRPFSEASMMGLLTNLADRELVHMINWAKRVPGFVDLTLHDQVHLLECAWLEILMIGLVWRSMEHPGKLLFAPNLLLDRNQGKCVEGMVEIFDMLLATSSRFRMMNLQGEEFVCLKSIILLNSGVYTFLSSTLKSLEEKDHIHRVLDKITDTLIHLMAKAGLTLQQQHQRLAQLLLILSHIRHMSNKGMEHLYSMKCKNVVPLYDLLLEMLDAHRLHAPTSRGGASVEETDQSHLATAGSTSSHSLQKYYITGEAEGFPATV
UniProt Q8N163, residues 1-150: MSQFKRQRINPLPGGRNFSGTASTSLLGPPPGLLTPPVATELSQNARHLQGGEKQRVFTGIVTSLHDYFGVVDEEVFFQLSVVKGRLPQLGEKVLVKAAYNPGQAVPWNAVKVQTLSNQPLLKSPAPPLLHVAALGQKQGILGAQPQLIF

Results are given in words; binding and its absence hold for the method and conditions named. For some assays here: Binding seen in cells or lysates may run through a third protein. Some entries that bind do so weakly or less than the wild type.

Experiment [1] concerns the target GST-ERα (1-595) (UniProt P03372). Description: GST pull-down, 35S-labelled in vitro translated DBC-1 fragments.
The target is the same in experiment [2]. The experiment is described as follows: GST pull-down, in vitro translated DBC-1 fragments.
In experiment [3] the target is VP16-ERα chimera (full-length ERα fused to the Herpes simplex virus VP16 transactivation domain) (Herpes simplex virus) (UniProt P03372). Description: mammalian two-hybrid (luciferase reporter) in HeLa cells. On the technique in general: In a reporter assay the amount or activity of a reporter protein is the signal.
For experiment [4] the target is unchanged. Description: mammalian two-hybrid (luciferase reporter) in HeLa cells; interaction seen without E2.
For experiment [5] the target is unchanged. The experiment is described as follows: mammalian two-hybrid (luciferase reporter) in HeLa cells, hormone-free.

Turning to “DBC-1 (1-150), in vitro translated fragment (from UniProt Q8N163 1-150)”, the binding entry in the experiment with GST-ERα (1-595) [1] and with GST-ERα (1-595) [2] was “binds” in each case. “GAL4-DBC-1 chimera (full-length DBC-1 fused to the yeast GAL4 DNA-binding domain) (from UniProt P04386 1-147; Q8N163 1-923)”: the binding entry in experiment [3] and in experiment [4] was “binds” each time. For “GAL4-DBC-1-N terminal chimera (amino acids 1-478) (from UniProt P04386 1-147; Q8N163 1-478)”, the binding entry in experiment [5] was “binds”.
